From patent US7276528B2, “Compounds for the inhibition of nitric oxide synthase” (AstraZeneca AB, priority 2001, dated 2007)
Structures can show the parent of a compound that is named as a salt. Some entries share one result that the patent states for a list of compounds.

How the values were obtained:
Assay type in all cases: biochemical
Recombinant human nNOS = target: T1, Recombinant human nNOS (Homo sapiens, UniProt P29475); experiment: Screen 2: recombinant human NO synthase inhibition, L-[3H]citrulline formation (nNOS); details: recombinant human enzyme expressed in E. coli; 60 min pre-incubation with NADPH; 3 μM [3H]arginine
T1 construct: made in house; host or cells: E. coli (lysate)
Description: (§1) Recombinant human NO synthases (iNOS, eNOS & nNOS) were expressed in E. coli and lysates were prepared in Hepes buffer (pH 7.4) containing co-factors (FAD, FMN, H4B), protease inhibitors, lysozyme and the detergent, CHAPS. These preparations were used, at suitable dilution, to assess inhibition of the various isoforms. Inhibition of NOS was determined by measuring the formation of L-[^3H]citrulline from L-[^3H]arginine using an adaptation of the method of Förstermann et al. Enzyme assays were performed in the presence of 3 μM [^3H]arginine, 1 mM NADPH and other co-factors required to support NOS activity (FAD, FMN, H4B, calmodulin, Ca^2+). […] Incubations continued for a further 60 min before the assays were quenched and [^3H]citrulline separated from unreacted substrate by chromatography on Dowex-50 W resin in a 96-well format.

Recombinant human eNOS = target: T2, Recombinant human eNOS (Homo sapiens, UniProt P29474); experiment: Screen 2: recombinant human NO synthase inhibition, L-[3H]citrulline formation (eNOS); details: iNOS and nNOS versus eNOS
T2 construct: made in house; host or cells: E. coli (lysate)

Recombinant human iNOS = target: T3, Recombinant human iNOS (Homo sapiens, UniProt P35228); experiment: Screen 2: recombinant human NO synthase inhibition, L-[3H]citrulline formation (iNOS); details: recombinant human enzyme expressed in E. coli; 60 min pre-incubation with NADPH; 3 μM [3H]arginine
T3 construct: made in house; host or cells: E. coli (lysate)
Description: as §1

SMILES | IC50 (Recombinant human nNOS) | selectivity with respect to the inhibition of eNOS (Recombinant human eNOS) | IC50 (Recombinant human iNOS)
COc1ccc([N+](=O)[O-])c(Sc2cccc(CN)c2)c1.Cl [Example 6, 3-(5-Methoxy-2-nitrophenylthio)benzenemethanamine hydrochloride] | < 10 µM | good selectivity | < 10 µM
CCc1c(CN(C)C)cccc1Oc1cc(Cl)ccc1C#N.O=C(O)/C=C/C(=O)O [Example 44, 4-Chloro-2-(3-dimethylaminomethyl-2-ethylphenoxy)benzonitrile fumarate] | < 10 µM | good selectivity | < 10 µM
COc1ccc([N+](=O)[O-])c(Oc2cccc(CN)c2)c1.Cl [Example 1, 3-(5-Methoxy-2-nitrophenoxy)benzenemethanamine hydrochloride] | < 10 µM | good selectivity | < 10 µM
CNC1CCc2c(Oc3cc(Cl)ccc3C#N)cccc21.O=C(O)/C=C/C(=O)O (stereo not drawn) [Example 42, 4-Chloro-2-(1-methylaminoindan-4-yloxy)benzonitrile fumarate] | < 10 µM | good selectivity | < 10 µM
CNCc1cccc(Oc2cc(Cl)ccc2C#N)c1.O=C(O)/C=C/C(=O)O [Example 10, 4-Chloro-2-(3-methylaminomethyl-phenoxy)-benzonitrile fumarate] | < 10 µM | good selectivity | < 10 µM
CNCc1cccc(Oc2nc(C)ccc2C#N)c1OC.O=C(O)/C=C/C(=O)O [Example 37, 2-(2-Methoxy-3-methylaminomethyl-phenoxy)-6-methyl-nicotinonitrile fumarate] | < 10 µM | good selectivity | < 10 µM
CCc1ccc(C#N)c(Oc2cccc(CNC)c2OC)n1.O=C(O)/C=C/C(=O)O.O=C(O)/C=C/C(=O)O [Example 38, 6-Ethyl-2-(2-methoxy-3-methylaminomethyl-phenoxy)-nicotinonitrile difumarate] | < 10 µM | good selectivity | < 10 µM
CNCc1cc(Oc2cc(C(F)(F)F)ccc2C#N)ccc1Br.O=C(O)/C=C/C(=O)O [Example 15, 2-(4-Bromo-3-methylaminomethyl-phenoxy)-4-trifluoromethyl-benzonitrile fumarate] | < 10 µM | good selectivity | < 10 µM
CNCc1cc(OC)cc(Oc2cc(Cl)ccc2C#N)c1.O=C(O)C(=O)O [Example 9, 4-Chloro-2-[3-methoxy-5-[(methylamino)methyl]phenoxy]benzonitrile oxalate] | < 10 µM | good selectivity | < 10 µM
N#Cc1ccc(Cl)cc1Oc1cccc(CN2CCCC2)c1.O=C(O)/C=C/C(=O)O [Example 31, 4-Chloro-2-[3-(pyrrolidin-1-ylmethyl)phenoxy]benzonitrile fumarate] | < 10 µM | good selectivity | < 10 µM
COCCNCc1cccc(Oc2cc(Cl)ccc2C#N)c1.O=C(O)/C=C/C(=O)O [Example 27, 4-Chloro-2-{3-[(2-methoxyethylamino)methyl]phenoxy}benzonitrile fumarate] | < 10 µM | good selectivity | < 10 µM
C=CCc1cc(CNC)ccc1Oc1cc(Cl)ccc1C#N.O=C(O)/C=C/C(=O)O [Example 50, 2-(2-Allyl-4-methylaminomethyl-phenoxy)-4-chlorobenzonitrile fumarate] | < 10 µM | good selectivity | < 10 µM
CNc1ccc([N+](=O)[O-])c(Oc2cccc(CN)c2)c1.Cl [Example 5, 3-(5-Methylamino-2-nitrophenoxy)benzenemethanamine hydrochloride] | < 10 µM | good selectivity | < 10 µM
CSc1c(CN(C)C)cccc1Oc1cc(Cl)ccc1C#N [Example 55, 4-Chloro-2-(3-dimethylaminomethyl-2-methysulfanyl-phenoxy)-benzonitrile fumarate] | < 10 µM | good selectivity | < 10 µM
CCCNCc1cccc(Oc2cc(Cl)ccc2C#N)c1.O=C(O)/C=C/C(=O)O [Example 28, 4-Chloro-2-[3-(propylaminomethyl)phenoxy]benzonitrile fumarate] | < 10 µM | good selectivity | < 10 µM
N#Cc1ccc(Cl)cc1Oc1cccc(CNCCCO)c1.O=C(O)/C=C/C(=O)O [Example 30, 4-Chloro-2-{3-[(3-hydroxypropylamino)methyl]phenoxy}benzonitrile fumarate] | < 10 µM | good selectivity | < 10 µM
CN(C)CCNCc1cccc(Oc2cc(Cl)ccc2C#N)c1.O=C(O)/C=C/C(=O)O [Example 29, 4-Chloro-2-{3-[(2-dimethylaminoethylamino)methyl]phenoxy}benzonitrile fumarate] | < 10 µM | good selectivity | < 10 µM
CNCc1cccc(Oc2cc(C)ccc2C#N)c1.O=C(O)/C=C/C(=O)O [Example 39, 4-Methyl-2-(3-methylaminomethyl-phenoxy)-benzonitrile fumarate] | < 10 µM | good selectivity | < 10 µM

Next, values leading:

IC50 (Recombinant human nNOS) | selectivity with respect to the inhibition of eNOS (Recombinant human eNOS) | IC50 (Recombinant human iNOS) | SMILES
< 10 µM | good selectivity | < 10 µM | CCOc1cc(CNC)ccc1Oc1cc(Cl)ccc1C#N.O=C(O)/C=C/C(=O)O [Example 23, 4-Chloro-2-[2-ethoxy-4-(methylaminomethyl)phenoxy]benzonitrile fumarate]
< 10 µM | good selectivity | < 10 µM | CNCc1cccc(Oc2nc(C(F)(F)F)ccc2C#N)c1OC.O=C(O)/C=C/C(=O)O [Example 34, 2-(2-Methoxy-3-methylaminomethyl-phenoxy)-6-trifluoromethyl-nicotinonitrile fumarate]
< 10 µM | good selectivity | < 10 µM | CNCc1cccc(Oc2cc(Cl)ccc2C#N)c1SC.O=C(O)/C=C/C(=O)O [Example 57, 4-Chloro-2-(2-methylsulfanyl-3-methylaminomethyl-phenoxy)-benzonitrile fumarate]
< 10 µM | good selectivity | < 10 µM | CNCc1cccc(Oc2cc(Br)ccc2C#N)c1OC.O=C(O)/C=C/C(=O)O [Example 33, 4-Bromo-2-(2-methoxy-3-methylaminomethyl-phenoxy)-benzonitrile fumarate]
< 10 µM | good selectivity | < 10 µM | CNCc1ccc(Oc2cc(Cl)ccc2C#N)c2ccccc12.O=C(O)/C=C/C(=O)O [Example 24, 4-Chloro-2-[4-(methylaminomethyl)naphthalen-1-yloxy]benzonitrile fumarate]
< 10 µM | good selectivity | < 10 µM | CNCc1cccc(Oc2cc(Cl)ccc2C#N)c1OC.O=C(O)/C=C/C(=O)O [Example 12, 4-Chloro-2-(2-methoxy-3-methylaminomethyl-phenoxy)-benzonitrile fumarate]
< 10 µM | good selectivity | < 10 µM | CNCc1cccc(Oc2cc(Cl)ccc2C#N)c1OCC(F)(F)F.O=C(O)/C=C/C(=O)O [Example 20, 4-Chloro-2-[3-methylaminomethyl-2-(2,2,2-trifluoroethoxy)phenoxy]-benzonitrile fumarate]
< 10 µM | good selectivity | < 10 µM | CNCc1cccc(Oc2cc(Cl)ccc2C#N)c1O.O=C(O)/C=C/C(=O)O [Example 17, 4-Chloro-2-[2-hydroxy-3-(methylaminomethyl)phenoxy]benzonitrile fumarate]
< 10 µM | good selectivity | < 10 µM | CNCc1cccc(Oc2cc(C(F)(F)F)ccc2C#N)c1OC.O=C(O)/C=C/C(=O)O [Example 53, 2-(2-Methoxy-3-methylaminomethyl-phenoxy)-4-trifluoromethyl-benzonitrile fumarate]
< 10 µM | good selectivity | < 10 µM | CNCc1cccc(Oc2cc(Cl)c(F)cc2C#N)c1OC.O=C(O)/C=C/C(=O)O [Example 32, 4-Chloro-5-fluoro-2-(2-methoxy-3-methylaminomethylphenoxy)benzonitrile fumarate]
